In patent publication US20070066803A1:
No constants are given. Whether binding was seen depends on the method and setting. Binding seen in cells or lysates may run through a third protein. Some entries that bind do so weakly or less than the wild type. Tags and fused reporters may be left off the sequences shown.

Protein sequences, listed by entry. Tags and fused reporters are not part of them. Residues count along the entry.
UniProt P35222, residues 2-781: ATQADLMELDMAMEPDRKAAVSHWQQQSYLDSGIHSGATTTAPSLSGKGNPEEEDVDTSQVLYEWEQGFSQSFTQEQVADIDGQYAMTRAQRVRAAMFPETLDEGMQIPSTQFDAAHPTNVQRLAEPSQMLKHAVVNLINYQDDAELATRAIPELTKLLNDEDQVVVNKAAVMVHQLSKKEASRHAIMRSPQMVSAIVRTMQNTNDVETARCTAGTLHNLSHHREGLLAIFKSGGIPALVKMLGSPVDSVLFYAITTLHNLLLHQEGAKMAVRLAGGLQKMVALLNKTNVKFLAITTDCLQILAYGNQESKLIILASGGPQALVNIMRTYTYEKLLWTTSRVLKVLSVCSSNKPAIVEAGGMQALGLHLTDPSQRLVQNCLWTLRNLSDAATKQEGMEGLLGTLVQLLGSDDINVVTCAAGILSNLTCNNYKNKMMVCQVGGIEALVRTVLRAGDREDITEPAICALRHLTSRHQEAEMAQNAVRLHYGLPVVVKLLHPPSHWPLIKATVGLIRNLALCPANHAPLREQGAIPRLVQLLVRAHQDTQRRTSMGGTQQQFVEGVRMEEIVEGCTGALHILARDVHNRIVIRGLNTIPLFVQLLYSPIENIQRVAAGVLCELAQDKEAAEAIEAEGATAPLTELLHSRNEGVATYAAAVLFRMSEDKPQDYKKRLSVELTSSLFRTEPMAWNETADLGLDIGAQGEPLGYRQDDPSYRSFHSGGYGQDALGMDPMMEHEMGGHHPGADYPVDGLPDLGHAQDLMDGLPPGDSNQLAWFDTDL

What was measured:
[1] = target: T1, p120ctn isoform 3A (human) (UniProt O60716); assay: co-immunoprecipitation with anti-Myc 9E10 or anti-p120ctn pp120, Western blot
T1 sequence (looked up): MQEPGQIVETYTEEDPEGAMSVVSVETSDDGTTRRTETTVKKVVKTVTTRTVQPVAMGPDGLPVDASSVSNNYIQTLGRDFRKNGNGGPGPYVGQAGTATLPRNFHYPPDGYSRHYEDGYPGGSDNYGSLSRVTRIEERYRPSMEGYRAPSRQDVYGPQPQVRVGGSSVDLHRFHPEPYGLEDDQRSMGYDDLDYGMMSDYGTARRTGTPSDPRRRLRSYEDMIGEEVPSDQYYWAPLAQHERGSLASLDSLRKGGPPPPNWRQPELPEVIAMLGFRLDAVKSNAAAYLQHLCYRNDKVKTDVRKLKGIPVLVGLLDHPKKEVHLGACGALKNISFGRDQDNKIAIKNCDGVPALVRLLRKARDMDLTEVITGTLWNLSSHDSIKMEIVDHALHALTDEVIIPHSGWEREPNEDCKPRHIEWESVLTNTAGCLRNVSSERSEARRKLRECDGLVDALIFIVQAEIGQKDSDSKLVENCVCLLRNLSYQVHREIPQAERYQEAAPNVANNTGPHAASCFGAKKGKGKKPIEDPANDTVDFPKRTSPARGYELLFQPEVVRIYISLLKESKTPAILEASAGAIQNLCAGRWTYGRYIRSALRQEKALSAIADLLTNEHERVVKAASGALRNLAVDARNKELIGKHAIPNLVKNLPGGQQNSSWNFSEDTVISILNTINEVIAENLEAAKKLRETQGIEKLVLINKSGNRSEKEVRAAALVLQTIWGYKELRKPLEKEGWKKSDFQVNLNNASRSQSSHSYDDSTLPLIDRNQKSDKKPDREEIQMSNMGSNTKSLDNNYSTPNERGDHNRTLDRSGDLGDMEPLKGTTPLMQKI

β-catenin (human) [2] = target: β-catenin (human) (UniProt P35222); assay: co-immunoprecipitation from cell lysates (MDCK-Tetoff-hECRep1a -Tet; HEK-293T cotransfected), Western blot
[3] = target: T1, p120ctn isoform 3A (human); assay: as above
β-catenin (human) [4] = target: β-catenin (human) (UniProt P35222); assay: co-immunoprecipitation with anti-Myc 9E10 or polyclonal anti-β-catenin, Western blot

binding [1]: binds
binding (β-catenin (human) [2]): binds
binding [3]: binds
binding (β-catenin (human) [4]): binds
B1: Myc-tagged full-length human hECRep1a (protein, not shown: small tags and cut ends)
chain: MEAFPWAPRSPRRGRAPPPMALVPSARYVSAPGPAHPQPFSSWNDYLGLATLITKAVDGEPRFGCARGGNGGGGSPPSSSSSSCCSPHTGAGPGALGPALGPPDYDEDDDDDSDEPGSRGRYLGSALELRALELCAGPAEAGLLEERFAELSPFAGRAAAVLLGCAPAAAAAATTTSEATPREERAPAWAAEPRLHAASGAAAARLLKPELQVCVFCRNNKEAMALYTTHILKGPDGRVLCPVLRRYTCPLCGASGDNAHTIKYCPLSKVPPPPARPPPRSARDGPPGKKLR
